Chains of the proteins cited; added tags and fusions are not shown. A line that says so, or that is headed by a name, gives the form on record, which may keep a tag or linker.
CPF (endogenous CYP7 promoter-binding factor in HepG2 nuclear extract) (Homo sapiens), one chain, as listed by the source: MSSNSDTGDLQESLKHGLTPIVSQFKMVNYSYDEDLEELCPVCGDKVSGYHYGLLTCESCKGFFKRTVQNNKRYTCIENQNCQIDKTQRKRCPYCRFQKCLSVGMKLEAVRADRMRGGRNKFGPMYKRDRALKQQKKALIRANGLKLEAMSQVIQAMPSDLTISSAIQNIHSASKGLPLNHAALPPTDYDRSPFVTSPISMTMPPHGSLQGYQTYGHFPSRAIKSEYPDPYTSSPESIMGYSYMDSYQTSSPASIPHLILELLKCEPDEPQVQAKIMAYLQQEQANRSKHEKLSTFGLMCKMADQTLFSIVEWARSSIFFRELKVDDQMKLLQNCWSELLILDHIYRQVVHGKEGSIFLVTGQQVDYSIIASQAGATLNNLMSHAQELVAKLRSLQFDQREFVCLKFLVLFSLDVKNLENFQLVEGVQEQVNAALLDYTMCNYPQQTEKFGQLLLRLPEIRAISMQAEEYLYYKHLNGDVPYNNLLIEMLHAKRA

According to patent US6297019:

system: CPF (endogenous CYP7 promoter-binding factor in HepG2 nuclear extract) (Homo sapiens); experiment: EMSA; conditions: 5 mM MgCl2, 100 mM KCl, room temperature, protein in an extract, label: 32P

Row | Sequence | binding result
1 | TCTGATACCTGTGGACTTAGTTCAAGGCCAGTTA (double strand) [CYP7 promoter wild-type oligo] | binds

same assay, conditions: protein in an extract, variant of CYP7 promoter wild-type oligo

Row | Sequence | binding result
2 | TCTGATACCTGTTATATTAGTTCAAGGCCAGTTA (double strand) [SEQ 13 oligo] | binds
3 | TCTGATACCTGTGGACTTAGTTCAAGGAGAGTTA (double strand) [SEQ 21 oligo] | no binding
4 | TCTGATACCTGTGGACTTAGTTCTTGGCCAGTTA (double strand) [SEQ 18 oligo] | no binding
5 | TCTGATACCTGTGGACTTAGTAGGAGGCCAGTTA (double strand) [SEQ 27 oligo] | no binding
6 | TCTGGAGGATGTGGACTTAGTTCAAGGCCAGTTA (double strand) [SEQ 12 oligo] | binds
7 | TCTGATACCTGTGGACTTAGTTCAAGTCCAGTTA (double strand) [SEQ 20 oligo] | no binding
8 | TCTGGAGGATGTGGACTTCTATCAAGGCCAGTTA (double strand) [SEQ 14 oligo] | binds
9 | TCTGATACCTGTGGACTTAGTTCAAGGCCTATTA (double strand) [SEQ 22 oligo] | no binding
10 | TCTGATACCTGTGGACTTAGTACCAGGCCAGTTA (double strand) [SEQ 26 oligo] | no binding
11 | TCTGATACCTGTGGACTTAGTCAAAGGCCAGTTA (double strand) [SEQ 25 oligo] | no binding
12 | TCTGATACCTGTGGACTTAGTTCAATGCCAGTTA (double strand) [SEQ 19 oligo] | no binding
13 | TCTGATACCTGTGGACTTAGTTCAAGGCCAATTA (double strand) [SEQ 23 oligo] | binds
14 | TCTGATACCTGTGGACTTAGTCTCAGGCCAGTTA (double strand) [SEQ 30 oligo] | no binding
15 | TCTGATACCTGTTATATTCTATCAAGGCCAGTTA (double strand) [SEQ 15 oligo] | binds
16 | TCTGATACCTGTGGACTTAGTTCAAGGCCAGGTA (double strand) [SEQ 24 oligo] | binds
17 | TCTGATACCTGTGGACTTAGTAAGAGGCCAGTTA (double strand) [SEQ 28 oligo] | no binding
18 | TCTGATACCTGTGGACTTAGTAGAAGGCCAGTTA (double strand) [SEQ 17 oligo] | no binding
19 | TCTGATACCTGTGGACTTAGTTTCAGGCCAGTTA (double strand) [SEQ 29 oligo] | no binding

At least one result comes from cells or an extract, where the contact may be indirect. Negatives hold for the conditions tested.
